# PubChem BioAssay AID1259425 – University of Nebraska Medical Center – 2018
# Assay: 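Seek colon cancer weak points whose silencing resembles KSR1 loss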 (primary screen)
# System: HCT116 human colon cancer cells
# Reagents: siRNA pool against human genes, 50 nM siRNA
# Read-out: 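After 50 nM siRNA pool, branched-DNA assay measures six marker transcripts per well, minus blank, normalised to the geometric mean of two housekeeping transcripts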
# Reading the numbers: BNIP3L mRNA: higher = more BNIP3L transcript after knockdown; NDRG1 mRNA: higher = more NDRG1 transcript after knockdown
# The deposit covers about 14,000 reagents; this is an unselected part. Reagents against one gene are numbered here. Not all columns of the deposit are shown. Reagent sequences are not shown. Not given: the time to read-out.
gene knocked down,reagent no.,"BNIP3L mRNA, set 1","NDRG1 mRNA, set 1"
IFIT5 (interferon induced protein with tetratricopeptide repeats 5),1,0.0807,0.0826
TIMM22 (translocase of inner mitochondrial membrane 22),1,0.0854,0.167
EFHD1 (EF-hand domain family member D1),1,0.13,0.266
PIGT (phosphatidylinositol glycan anchor biosynthesis class T),1,0.201,0.456
"ABHD6 (abhydrolase domain containing 6, acylglycerol lipase)",1,0.0839,0.072
FBLN2 (fibulin 2),1,0.14,0.106
SCAMP1,1,0.189,0.288
USP32 (ubiquitin specific peptidase 32),1,0.216,0.261
MICU1 (mitochondrial calcium uptake 1),1,0.152,0.946
MFAP3L (microfibril associated protein 3 like),1,0.126,0.492
ARL14 (ARF like GTPase 14),1,0.0765,0.218
HS6ST1 (heparan sulfate 6-O-sulfotransferase 1),1,0.0685,0.121
"LGSN (lengsin, lens protein with glutamine synthetase domain)",1,0.06,0.195
CTAG1B (cancer/testis antigen 1B),1,0.548,0.475
NFKBIL1 (NFKB inhibitor like 1),1,0.146,0.363
PIN1P1,1,0.103,0.284
RBM14 (RNA binding motif protein 14),1,0.115,0.13
RBM14 (RNA binding motif protein 14),2,0.159,0.199
TRAK2 (trafficking kinesin protein 2),1,0.0844,0.291
RBPJL,1,0.155,0.233

Records above whose target name starts with P or p (2):
gene knocked down,reagent no.,"BNIP3L mRNA, set 1","NDRG1 mRNA, set 1"
PIGT (phosphatidylinositol glycan anchor biosynthesis class T),1,0.201,0.456
PIN1P1,1,0.103,0.284
